Measurements taken from patent US20250170183A1, “METHOD FOR ENRICHING MUSE CELLS AND OBTAINING EXOSOMES, MICROVESICLES OR THE SECRETOME THEREFROM” (priority 2022, published 2025).
For at least one compound, name, drawing or mass did not settle the structure.

Tested on: LPS-induced sepsis
Experiment: LPS-induced sepsis rodent model: Murine Sepsis Score (MSS)
Assay type: in vivo, BALB/C mice
Details: 24 h post LPS, vs PBS control group; FIG. 15A

SMILES: C[C@@H]1C[C@H]2[C@@H]3CCC4=CC(=O)C=C[C@]4(C)[C@@]3(F)[C@@H](O)C[C@]2(C)[C@@]1(O)C(=O)CO [dexamethasone]
- MSS scores: scored lower than the PBS control group
